Experimental data published in paper PMC7113306.
No constants are given. Whether binding was seen depends on the method and setting. A result given as binding can be weak or reduced; the word gives no strength.

Molecular target: T1, BMP10 GF-domain from pro-BMP10 (human) (UniProt O95393)
T1 sequence: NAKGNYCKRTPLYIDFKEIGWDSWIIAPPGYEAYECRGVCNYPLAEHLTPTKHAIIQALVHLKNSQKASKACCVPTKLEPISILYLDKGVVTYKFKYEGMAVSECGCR
Experiment: SEC; analytical gel filtration, Superdex 200 10/300, 20 mM Tris.HCl, 150 mM NaCl, pH 7.4; 100 μg protein with 2-fold molar excess of ALK1 ECD; peaks checked by SDS-PAGE and anti-prodomain blot; both purified

binding: binds
Substance: BMP10 prodomain (human) (domain or fragment)
